PubChem BioAssay AID1671195 – Yale University, 2021

Test: 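Knockdowns that increase or decrease uptake of fluorescent LDL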 (primary screen)
System: human Huh7 hepatoma cells
Reagents: siRNA pool against human genes, 18 nM
Duration: about 2 to 2.5 days of knockdown, then 8 h LDL uptake
Challenge: DiI-labelled LDL at 30 µg/ml for 8 h, in lipoprotein-deficient serum medium
Measured: 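Fluorescent LDL signal imaged in cells, scaled to the plate median, robust z-score for each replicate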
Direction: robust z-score: higher = more LDL uptake after knockdown
Active means: 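Active when two or more replicates show a robust z-score above 2 or below -2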
Here is one part, drawn at random, of about 22,000 deposited reagents. Of all reagents, about 1,510 (6.9%) got an active call. 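Active includes knockdowns raising or lowering LDL uptake; positive z-scores mean more uptake, negative mean less.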 Entries without a mark were called inactive. No sequences are given here.

gene symbol	PubChem SID	robust z-score, replicate 1	robust z-score, replicate 2	robust z-score, replicate 3
IL17C	SID442890236	1.34	-0.64	0.637
CXCL13	SID442888427	0.938	1.14	0.0866
LOC441657 (retired record)	SID442902751	-1.29	-1.25	-0.884
KL	SID442883618	3.22 (active)	1.69	2.78
OR1L8	SID442891222	0.511	0.518	-0.0827
LINC00239	SID442884626	3.16	1.71	1.61
MICU1	SID442890531	0.356	0.296	0.562
LOC401180 (retired record)	SID442898744	-0.576	-0.542	-0.48
SLC17A9	SID442904051	-1.2	-1.27	-1.95
GEMIN2	SID442893991	-0.671	0.108	0.524
ZFAT	SID442901801	-0.591	-1.19	-1.11
PPIAP19	SID442901137	-0.78	-0.88	-0.907
OR14K1	SID442891937	0.117	0.209	0.357
E4F1	SID442900045	-0.92	-0.679	-0.513
ADCY5	SID442900214	-0.65	-1.37	-0.172
LRRC15	SID442889663	1.32	-0.312	0.567
LOC389321 (retired record)	SID442898340	-0.478	-0.534	-0.45
LOC387904 (retired record)	SID442884643	1.66	1.82	2.7
SIAH1	SID442900260	-0.482	-0.396	-1.33
LINC02864	SID442891890	0.244	0.367	0.0886
LOC440476 (retired record)	SID442897039	-0.0119	-0.592	-0.417
SLC25A25	SID442887865	0.903	0.611	0.965
CALML4	SID442889757	0.65	0.581	0.309
LTBR	SID442902009	-1.12	-1.21	-0.664
ADAR	SID442885201	0.804	2.63	1.44
PTK7	SID442889216	0.139	0.643	1
POLR3E	SID442885165	1.31	2.14	1.47
ZNF266	SID442896334	-0.163	-0.299	-0.322
